Measurements: publication PMC13365561
Residue numbers refer to the chain shown, from its start. Results are given in words; binding and its absence hold for the method and conditions named. Some entries that bind do so weakly or less than the wild type. Where a sequence is shown, tags or fusion partners need not be part of it.

Legend:
Experiment in all cases: cell aggregation assay; FreeStyle 293-F cells co-transfected with GFP or mCherry and a surface display plasmid, mixed 1:1, shaken 1 h at 37 °C; aggregation index from images
[1] = target: T1, wild-type BAI3 (Flag-tagged, expressed on cells) (mouse) (UniProt Q80ZF8)
T1 sequence: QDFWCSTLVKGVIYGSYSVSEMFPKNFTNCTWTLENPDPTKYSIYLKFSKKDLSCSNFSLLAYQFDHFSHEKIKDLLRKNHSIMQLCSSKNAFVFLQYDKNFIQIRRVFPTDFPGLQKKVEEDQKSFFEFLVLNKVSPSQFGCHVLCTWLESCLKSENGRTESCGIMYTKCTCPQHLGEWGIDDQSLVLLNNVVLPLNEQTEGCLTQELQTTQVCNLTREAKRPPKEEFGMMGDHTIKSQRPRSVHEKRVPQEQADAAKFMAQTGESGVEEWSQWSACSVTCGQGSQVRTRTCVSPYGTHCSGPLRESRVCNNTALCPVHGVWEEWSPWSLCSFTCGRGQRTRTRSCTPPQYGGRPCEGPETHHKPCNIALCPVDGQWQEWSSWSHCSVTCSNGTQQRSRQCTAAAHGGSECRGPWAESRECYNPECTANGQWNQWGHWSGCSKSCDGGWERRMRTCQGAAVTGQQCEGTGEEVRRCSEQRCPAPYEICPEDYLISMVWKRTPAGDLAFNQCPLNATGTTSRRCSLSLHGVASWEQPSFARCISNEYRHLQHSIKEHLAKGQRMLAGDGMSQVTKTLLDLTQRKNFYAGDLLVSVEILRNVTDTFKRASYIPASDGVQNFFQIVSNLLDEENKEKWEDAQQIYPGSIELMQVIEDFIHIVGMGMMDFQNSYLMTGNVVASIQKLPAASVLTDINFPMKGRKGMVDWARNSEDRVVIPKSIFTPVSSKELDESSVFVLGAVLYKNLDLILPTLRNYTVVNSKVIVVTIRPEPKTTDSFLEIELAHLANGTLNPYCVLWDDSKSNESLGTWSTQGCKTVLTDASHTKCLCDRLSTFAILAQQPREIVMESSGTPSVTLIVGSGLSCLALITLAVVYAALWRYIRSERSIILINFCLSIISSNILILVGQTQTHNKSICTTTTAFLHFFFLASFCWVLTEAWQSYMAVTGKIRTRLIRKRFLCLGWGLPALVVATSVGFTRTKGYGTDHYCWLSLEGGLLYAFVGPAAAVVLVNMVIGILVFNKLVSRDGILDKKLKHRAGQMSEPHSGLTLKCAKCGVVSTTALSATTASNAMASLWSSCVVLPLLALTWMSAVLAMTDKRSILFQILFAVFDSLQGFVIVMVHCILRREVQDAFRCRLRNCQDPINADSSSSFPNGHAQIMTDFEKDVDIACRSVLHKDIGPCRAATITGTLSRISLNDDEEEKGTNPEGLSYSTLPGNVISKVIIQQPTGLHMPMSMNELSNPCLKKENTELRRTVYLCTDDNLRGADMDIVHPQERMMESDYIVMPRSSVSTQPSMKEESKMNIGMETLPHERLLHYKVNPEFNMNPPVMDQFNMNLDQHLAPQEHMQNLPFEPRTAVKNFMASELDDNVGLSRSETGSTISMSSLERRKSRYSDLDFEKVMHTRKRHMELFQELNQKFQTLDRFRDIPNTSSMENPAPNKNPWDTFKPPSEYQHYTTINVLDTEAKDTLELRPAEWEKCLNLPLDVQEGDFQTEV

[2] = target: T2, BAI3 T360V (Flag-tagged, expressed on cells) (mouse) (UniProt Q80ZF8)
T2 sequence: T1 sequence with T335V

[3] = target: T3, BAI3 R366A (Flag-tagged, expressed on cells) (mouse) (UniProt Q80ZF8)
T3 sequence: T1 sequence with R341A

B1: RTN4R (expressed on FreeStyle 293-F cells) (receptor, UniProt Q99PI8 27-447)
chain: CPGACVCYNEPKVTTSCPQQGLQAVPTGIPASSQRIFLHGNRISHVPAASFQSCRNLTILWLHSNALARIDAAAFTGLTLLEQLDLSDNAQLHVVDPTTFHGLGHLHTLHLDRCGLRELGPGLFRGLAALQYLYLQDNNLQALPDNTFRDLGNLTHLFLHGNRIPSVPEHAFRGLHSLDRLLLHQNHVARVHPHAFRDLGRLMTLYLFANNLSMLPAEVLMPLRSLQYLRLNDNPWVCDCRARPLWAWLQKFRGSSSEVPCNLPQRLADRDLKRLAASDLEGCAVASGPFRPIQTSQLTDEELLSLPKCCQPDAADKASVLEPGRPASAGNALKGRVPPGDTPPGNGSGPRHINDSPFGTLPSSAEPPLTALRPGGSEPPGLPTTGPRRRPGCSRKNRTRSHCRLGQAGSGASGTGDAEGS
In the case of B1, the binding [1] is reported as “binds”, the binding [2] is reported as “no binding” and the binding [3] is reported as “no binding”.
